Structures are written as SMILES.

The subject of this data set is mouse model of diabetes. The data set can be described thus: Nephropathy in streptozotocin mouse model of diabetes (eNOS-/- mice), α7-nAchR blocker. Format: in vivo. The conditions noted are these: blocker 2 mg/kg i.p. 5 days a week, 10 weeks. As for the experimental part: Normal mice express the α7-nAChR in both the proximal and distal tubule of the kidneys. Tests were conducted to determine the role of the α7-nAchR on the severity of nephropathy in a mouse model of diabetes. Diabetes mellitus (DM) was induced in all mice with streptozotocin (STZ). This test closely mimics diabetic […] in humans. Mice were either given nicotine (DN) in doses of […] in drinking water or tap water with no nicotine for a period of 10 weeks (DT). Targeted disruption of the endothelial nitric oxide synthase gene led to eNOS^-/- knockout in a group of mice to increase susceptibility of STZ in the mice. One group of eNOS^-/- knockout mice was also subjected to targeted disruption of the α7-nAchR gene, which led to eNOS^-/-/α7-nAchR^-/- double knockout mice (DN^-/- and DT^-/-). A separate group of eNOS^-/- mice also received a α7-nAchR blocker (DN+B and DT+B). The blocker used was Compound 17 at a dosage of 2 mg/kg given intraperitoneally for 5 days a week for a period of 10 weeks. Blood pressure was measured by tail-cuff method and urine was collected every 2 weeks for albuminuria.
All mice became diabetic after being administered STZ, and all mice were also hypertensive.

Regarding `NS(=O)(=O)c1ccc(Cn2ncc(C(=O)NCC3CCN(Cc4ccccc4)CC3)n2)cc1` [Compound 17], the “Body Weight” value is, setting by setting: (DN + B: diabetic eNOS-/- mice on nicotine) 25 ± 0.5 g; (DT + B: diabetic eNOS-/- mice on tap water) 26 ± 1.1 g.

The record behind these values is US11491150B2, “Organic compounds” (INTRA-CELLULAR THERAPIES, INC., priority 2017, dated 2022).
